{"source": "PubChem BioAssay AID1053208 (Peter MacCallum Cancer Centre, 2014)", "screen": "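Synthetic lethal interactions between gene loss and doxorubicin in osteosarcoma cells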 (primary screen)", "cells": "mouse osteosarcoma cells, early-passage culture from an engineered mouse model of fibroblastic bone tumour", "reagent": "siRNA pool against mouse genes, 40 nM", "timing": "about 120 h (48 h before drug, then 72 h with drug)", "treatment": "doxorubicin 100 nM for 72 h, roughly 30-40% inhibitory dose", "measurement": "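Luminescent ATP signal taken as viability with or without 100 nM doxorubicin for 72 h; mean of two wells set against non-targeting siRNA and turned into robust z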", "direction": "viability z-score with doxorubicin: higher = more viable cells under doxorubicin; viability z-score without drug: higher = more viable cells with knock-down alone", "active means": "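Called active if knock-down leaves viability unchanged without drug (z within -2 to 2) but lowers it with doxorubicin (z at or under -2)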", "note": "Here is one part, drawn at random, of about 17,000 reagents tested. Over the whole deposit, 788 (4.7%) got an active call. 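Calls rest on z-score classes alone; an extra cut-off of viability at most 70% of control was not applied to them.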 Unmarked entries are inactive. Not all columns of the deposit are shown."}
The first 2 entries, to show the layout:
{"gene symbol":"Sgip1","combined z-score class":"no change with or without drug","viability z-score with doxorubicin":0.11,"viability z-score without drug":-0.51}
{"gene symbol":"Egr4","combined z-score class":"low cell count with doxorubicin only (active)","viability z-score with doxorubicin":-2.14,"viability z-score without drug":-0.84}

Main list, from the first entry:
{"gene symbol":"Sgip1","combined z-score class":"no change with or without drug","viability z-score with doxorubicin":0.11,"viability z-score without drug":-0.51}
{"gene symbol":"Egr4","combined z-score class":"low cell count with doxorubicin only (active)","viability z-score with doxorubicin":-2.14,"viability z-score without drug":-0.84}
{"gene symbol":"Ndfip2","combined z-score class":"no change with or without drug","viability z-score with doxorubicin":-1.35,"viability z-score without drug":-0.17}
{"gene symbol":"A730085E03Rik","combined z-score class":"no change with or without drug","viability z-score with doxorubicin":0,"viability z-score without drug":-0.51}
{"gene symbol":"Slc15a4","combined z-score class":"no change with or without drug","viability z-score with doxorubicin":-1.91,"viability z-score without drug":-0.84}
{"gene symbol":"Or7e173","combined z-score class":"no change with or without drug","viability z-score with doxorubicin":-0.79,"viability z-score without drug":-0.17}
{"gene symbol":"Nt5dc3","combined z-score class":"high cell count with doxorubicin only","viability z-score with doxorubicin":2.02,"viability z-score without drug":1.18}
{"gene symbol":"Snx14","combined z-score class":"no change with or without drug","viability z-score with doxorubicin":-0.67,"viability z-score without drug":0.17}
{"gene symbol":"Pstk","combined z-score class":"no change with or without drug","viability z-score with doxorubicin":1.12,"viability z-score without drug":1.52}
{"gene symbol":"Pus7l","combined z-score class":"no change with or without drug","viability z-score with doxorubicin":0.67,"viability z-score without drug":-0.51}
{"gene symbol":"Ube3b","combined z-score class":"no change with or without drug","viability z-score with doxorubicin":-0.11,"viability z-score without drug":-0.17}
{"gene symbol":"Cyb561","combined z-score class":"no change with or without drug","viability z-score with doxorubicin":0.67,"viability z-score without drug":-0.51}
{"gene symbol":"Bcat1","combined z-score class":"no change with or without drug","viability z-score with doxorubicin":1.57,"viability z-score without drug":0.51}
{"gene symbol":"Plaa","combined z-score class":"no change with or without drug","viability z-score with doxorubicin":1.35,"viability z-score without drug":1.52}
{"gene symbol":"Steap4","combined z-score class":"high cell count without drug only","viability z-score with doxorubicin":0.9,"viability z-score without drug":2.02}
{"gene symbol":"Siglecg","combined z-score class":"no change with or without drug","viability z-score with doxorubicin":-0.79,"viability z-score without drug":0.34}
{"gene symbol":"Plpp3","combined z-score class":"no change with or without drug","viability z-score with doxorubicin":0.22,"viability z-score without drug":0.17}
{"gene symbol":"Mydgf","combined z-score class":"no change with or without drug","viability z-score with doxorubicin":-1.35,"viability z-score without drug":1.18}
{"gene symbol":"Slc25a44","combined z-score class":"no change with or without drug","viability z-score with doxorubicin":0.67,"viability z-score without drug":0.84}
